# PubChem BioAssay AID504834 (National Center for Advancing Translational Sciences (NCATS), 2011)
# Screen size: about 320,000 compounds; about 22,000 (6.9%) were called active. Inconclusive results, whose numbers are uncertain, are shown with a selection of clear calls. Calls follow the shape of the dose curve; as a rule, active = well fitted inhibition curve with a large enough effect; inconclusive = small, poorly fitted or top-dose-only effect, or another doubt; inactive = no such curve, though single readings can be large or run the other way. Potencies of inconclusive entries are doubtful fits and often do not repeat.
# Assay: Primary qHTS for delayed death inhibitors of the malarial parasite plastid, 96 hour incubation
# Settings: P. falciparum luciferase reporter growth; series mostly up to 28.7 µM; activity change, negative = inhibition: at the top concentration
# Outline: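 Cell-based qHTS: luciferase-tagged P. falciparum in erythrocytes (2% hematocrit, 0.05% parasitemia final) incubated with compounds for 96 hours, 37 C, 5% CO2; luciferase detection reagent then added and luminescence measured.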
# % is scaled to controls: 0 for no effect and ±100 for the full control effect; potency is read from the fitted curve at half-maximal effect.
SMILES,Potency,"activity change, negative = inhibition"
CN(C)S(=O)(=O)c1cccc(NC(=O)COc2ccccc2C(=O)NCc2ccccc2)c1,"inconclusive: 5.86 µM [inhibitor, partial curve]",
CCSc1nc(-c2ccc(OC)cc2)ccc1C#N,,inactive: 25.5%
COc1ccc2c(c1)CCc1c-2n[nH]c1C(=O)NCCC(C)C,,inactive: 1.85%
CC(=O)N1c2ccc(S(=O)(=O)N3CCC(C(=O)Nc4ccc(F)cc4)CC3)cc2CC1C (configuration not stated),"inconclusive: 2.94 µM [inhibitor, partial curve, poor fit]",
COCCNC(=O)c1cc(-c2ccccc2)n(CC2CC(c3ccc(OC)cc3)=NO2)n1 (configuration not stated),"inconclusive: 16.5 µM [inhibitor, single point]",
COc1ccccc1COC(=O)c1ccc(S(=O)(=O)N2CCOCC2)cc1,,inactive: -28.8%
CCN(CC)S(=O)(=O)c1ccc(C(C)NCC(=O)Nc2ccccc2C(=O)NC2CC2)cc1 (configuration not stated),"inconclusive: 3.7 µM [inhibitor, full curve]",
COc1ccc(CNS(=O)(=O)c2c(C(=O)N3CCCCCC3)c(C)n(C)c2C)cc1,active: 3.29 µM,
CC(C)=CCc1c(C)nc2ccccc2c1C(=O)O,,inactive: 20.3%
CCc1ccc(CN(C)Cc2nc(-c3cccc(Cl)c3)no2)nc1,"inconclusive: 18.5 µM [inhibitor, single point]",
Cc1c(OC(C)C(=O)NCCN2CCOCC2)ccc2c3c(c(=O)oc12)CCCC3 (configuration not stated),"inconclusive: 11.7 µM [inhibitor, single point]",
COc1ccc(NC(=O)Cc2coc3cc(C)c(C(C)C)cc23)cc1S(=O)(=O)N1CCOCC1,"inconclusive: 11.7 µM [inhibitor, partial curve]",
COc1ccc(/C=N/NC(=O)c2ccn[nH]2)cc1COc1ccc([N+](=O)[O-])c(C)c1,"inconclusive: 2.94 µM [inhibitor, partial curve, poor fit]",
CCOc1ccc(/C=N/Nc2cc(N3CCOCC3)nc(C)n2)c(O)c1,active: 6.57 µM,
CCS(=O)(=O)c1nc(S(=O)(=O)c2ccc(Cl)cc2)c(NCCCN2CCCC2=O)s1,"inconclusive: 13.1 µM [inhibitor, partial curve, poor fit]",
Cc1ccc(-n2nnnc2CN2CCCCC2)cc1,active: 2.08 µM,
Fc1cccc(Cl)c1/C=N/n1c(-c2cccnc2)n[nH]c1=S,"inconclusive: 18.5 µM [inhibitor, single point]",
CC(C)(C)c1ccc2c(S(=O)(=O)O)c(C(C)(C)C)ccc2c1,"inconclusive: 2.94 µM [inhibitor, partial curve, poor fit]",
O=c1cc(Nc2cccc(Br)c2)[nH]c(=O)[nH]1,active: 11.7 µM,
COc1ccc(C)c(NC(=O)NCCc2cnc[nH]2)c1,"inconclusive: 10.4 µM [inhibitor, single point]",
NC(=Nc1ccc(N)cc1)C(N)=Nc1ccc(N)cc1,"inconclusive: 1.65 µM [inhibitor, full curve, poor fit]",
COc1ccc(C(C(=O)NC2CCCCC2)N(C(=O)c2ccccn2)c2cccnc2)cc1 (configuration not stated),,inactive: 141%
Cc1cnc(NC(=O)c2ccc3c(c2)C(=O)N(Cc2cccnc2)C3=O)s1,"inconclusive: 18.5 µM [inhibitor, single point]",

SMILES,Potency,"activity change, negative = inhibition"
CN(C)c1nc(NC(C)(C)C)nc(SCC(=O)Nc2ccccc2)n1,,inactive: -4.24%
C=CCOc1ccccc1NC(=O)CN1C(=O)CNC1=O,,inactive: 15.9%
O=C(COc1ccccc1)NNC1=NS(=O)(=O)c2ccccc21,"inconclusive: 9.28 µM [inhibitor, single point]",
Cc1cc(C)cc(-n2c(=O)c3sccc3n(CC(=O)NCc3ccco3)c2=O)c1,"inconclusive: 0.0657 µM [inhibitor, full curve, poor fit]",
Cc1ccc(S(=O)(=O)N(C)c2ccc(C(=O)Nc3cccnc3)cc2)cc1,active: 10.4 µM,
CC(C)(C)c1ccc(C(=O)N2CCCC2c2cccs2)cc1 (configuration not stated),"inconclusive: 14.7 µM [inhibitor, partial curve, poor fit]",
Cc1ccc(/C=C2\CCC3=C2OC(N)=C(C#N)C3c2ccc(C)cc2)cc1 (configuration not stated),"inconclusive: 5.86 µM [inhibitor, single point]",
Cc1ccc(O)c(CN2CCN(c3ccccc3)CC2)c1,,inactive: 90.5%
COc1ccc(Cl)cc1NC(=O)CN1C(=O)CSC1=O,"inconclusive: 10.4 µM [inhibitor, single point]",
Cc1cccc(CCNC(=O)CCNS(=O)(=O)c2cc(Br)cnc2N)c1,"inconclusive: 13.1 µM [inhibitor, partial curve, poor fit]",
Cc1ccc(CNc2c(C=O)c(=O)[nH]c3ccccc23)cc1,"inconclusive: 4.15 µM [inhibitor, partial curve, poor fit]",
CC(=O)Nc1ccc(N/C=C(\C=O)c2nc3ccccc3o2)cc1,"inconclusive: 18.5 µM [inhibitor, single point]",
CC(C)C[C@H]1CN=C(N(C)C)N1CC1CCCCCC1,"inconclusive: 11.7 µM [inhibitor, single point]",
Cc1cc(C)nc(SC2CCCCC2NS(=O)(=O)c2ccccc2)n1 (configuration not stated),"inconclusive: 4.15 µM [inhibitor, single point]",
Cn1ccnc1C(O)c1cccc(OCc2ccccc2)c1 (configuration not stated),"inconclusive: 18.5 µM [inhibitor, single point]",
O=C(O)[C@@H]1C[C@H]1[C@@H](NP(=O)(c1ccccc1)c1ccccc1)c1ccccc1,,inactive: -10.1%
Cc1c(OC(C)C(=O)NCC2CCC(C(=O)O)CC2)ccc2c1oc(=O)c1ccccc12 (configuration not stated),active: 13.1 µM,
Cc1cc2cc(CNC(=S)Nc3ccc(OC(F)F)cc3)ccc2[nH]1,,inactive: -13.2%
CCC(C)NC(=O)C1(O)c2cc(Br)ccc2NC(=O)N1c1cccc(OC)c1 (configuration not stated),"inconclusive: 2.08 µM [inhibitor, single point]",
CN1CCN(c2ccccc2NC(=O)c2cc3c(s2)-c2ccccc2OC3)CC1,"inconclusive: 2.33 µM [inhibitor, full curve]",
COc1ccc(-c2cc(C(=O)N3CCN(Cc4ccc5c(c4)OCO5)CC3)on2)cc1OC,"inconclusive: 18.5 µM [inhibitor, single point]",
O=C(c1nc2ccc(Cl)cn2c1CN1CCCC1)N1CCc2ccccc2C1,"inconclusive: 20.8 µM [inhibitor, single point]",
Cc1ccc(Nc2nc(C)cc(C)n2)c(Br)c1,"inconclusive: 2.62 µM [inhibitor, single point]",

# Some of these compounds in order of number of heavy atoms, rising:
SMILES,Potency,"activity change, negative = inhibition"
Cc1ccc(Nc2nc(C)cc(C)n2)c(Br)c1,"inconclusive: 2.62 µM [inhibitor, single point]",
COc1ccc(Cl)cc1NC(=O)CN1C(=O)CSC1=O,"inconclusive: 10.4 µM [inhibitor, single point]",
C=CCOc1ccccc1NC(=O)CN1C(=O)CNC1=O,,inactive: 15.9%
CC(C)(C)c1ccc(C(=O)N2CCCC2c2cccs2)cc1 (configuration not stated),"inconclusive: 14.7 µM [inhibitor, partial curve, poor fit]",
O=C(COc1ccccc1)NNC1=NS(=O)(=O)c2ccccc21,"inconclusive: 9.28 µM [inhibitor, single point]",
CC(=O)Nc1ccc(N/C=C(\C=O)c2nc3ccccc3o2)cc1,"inconclusive: 18.5 µM [inhibitor, single point]",
Cc1cc2cc(CNC(=S)Nc3ccc(OC(F)F)cc3)ccc2[nH]1,,inactive: -13.2%
Cc1cccc(CCNC(=O)CCNS(=O)(=O)c2cc(Br)cnc2N)c1,"inconclusive: 13.1 µM [inhibitor, partial curve, poor fit]",
Cc1ccc(/C=C2\CCC3=C2OC(N)=C(C#N)C3c2ccc(C)cc2)cc1 (configuration not stated),"inconclusive: 5.86 µM [inhibitor, single point]",
O=C(O)[C@@H]1C[C@H]1[C@@H](NP(=O)(c1ccccc1)c1ccccc1)c1ccccc1,,inactive: -10.1%
CN1CCN(c2ccccc2NC(=O)c2cc3c(s2)-c2ccccc2OC3)CC1,"inconclusive: 2.33 µM [inhibitor, full curve]",
Cc1c(OC(C)C(=O)NCC2CCC(C(=O)O)CC2)ccc2c1oc(=O)c1ccccc12 (configuration not stated),active: 13.1 µM,
COc1ccc(-c2cc(C(=O)N3CCN(Cc4ccc5c(c4)OCO5)CC3)on2)cc1OC,"inconclusive: 18.5 µM [inhibitor, single point]",

# (listing goes on)

SMILES,Potency,"activity change, negative = inhibition"
COc1ccc(C(=O)CCS(=O)(=O)c2ccc(C)cc2)cc1OC,,inactive: 44%
O=C(COc1ccc(S(=O)(=O)N2CCCCC2)cc1)N1CCCCCC1,active: 13.1 µM,
COc1ccc(Cc2noc(CN(C)CC3(N4CCOCC4)CCCCC3)n2)cc1OC,"inconclusive: 11.7 µM [inhibitor, single point]",
CCCC1=C/C(=C/c2ccc(-c3ccccc3OC)o2)C(=O)O1,"inconclusive: 14.7 µM [inhibitor, partial curve, poor fit]",
Cc1cccc(-c2ncc(CN3CCN(CC(C)C)C(CCO)C3)cn2)c1 (configuration not stated),,inactive: -14.1%
Brc1cccc(OCCn2ccnc2)c1,"inconclusive: 18.5 µM [inhibitor, single point]",
COCCNC(=O)CN1CCOc2ccccc21,"inconclusive: 11.7 µM [inhibitor, single point]",
C=C(COC(=O)CCC(=O)O)CC1CC(O)[C@]2(C)OC3CC4OC5C[C@]6(C)O[C@]7(C)CCC8OC9C[C@]%10(C)OC%11C(C)=CC(=O)OC%11CC%10OC9C[C@@H](C)C8OC7CC6O[C@]5(C)C/C=C\C4OC3CC2O1 (some centres not stated),"inconclusive: 0.0026 µM [inhibitor, full curve, poor fit]",
CN1CCN(C(=O)c2ccccc2NC(=O)c2ccccc2)CC1,"inconclusive: 11.7 µM [inhibitor, single point]",
Cc1cc(C(=O)CSc2nc(N)cc(N)n2)c(C)n1C1CC1,"inconclusive: 6.57 µM [inhibitor, single point]",
Cc1nc(Nc2ccc(Cl)cc2)c(C#N)c(=O)[nH]1,"inconclusive: 4.15 µM [inhibitor, partial curve, poor fit]",
CCOC(=O)N1CCN(C(=O)c2cnn3c(C(F)(F)F)cc(-c4cccs4)nc23)CC1,,inactive: 17.8%
CCOC(=O)Cc1csc(NC(=O)CN2CCOCC2)n1,active: 9.28 µM,
CC(=O)N1CCN(c2ccc(NC(=O)c3ccccc3)cc2)CC1,"inconclusive: 0.0185 µM [inhibitor, full curve, poor fit]",
COc1ccc(-c2ccc(/C=C3/C(=N)N4C(C)=CSC4=NC3=O)o2)c([N+](=O)[O-])c1,"inconclusive: 0.0329 µM [inhibitor, full curve, poor fit]",
O=C(c1cccs1)[C@@H]1[C@@H]2C(=O)N(Cc3ccc4c(c3)OCO4)C(=O)[C@@H]2C2c3ccccc3C=CN21 (some centres not stated),active: 10.4 µM,
COc1ccc2cc3cc(C(=O)NCCN4CCc5ccccc5C4)oc3nc2c1,"inconclusive: 6.57 µM [inhibitor, partial curve, poor fit]",
CCCCn1c(N)c(N(CCOC)C(=O)COC(=O)CCOc2ccc(C)cc2)c(=O)[nH]c1=O,"inconclusive: 16.5 µM [inhibitor, single point]",
O=C(Nc1nsc(-c2ccccc2)n1)c1cccs1,,inactive: -20.9%
COc1ccc(C2CC(c3ccccc3O)=NN2C(=O)c2ccccc2)cc1OC (configuration not stated),active: 4.15 µM,
CCCCn1nc2cc(C(=O)NCc3ccco3)ccc2c1OCC,"inconclusive: 0.0828 µM [inhibitor, full curve, poor fit]",

# Two of the compounds above, as tab-separated lines.
SMILES	Potency	activity change, negative = inhibition
COCCNC(=O)CN1CCOc2ccccc21	inconclusive: 11.7 µM [inhibitor, single point]	
CCCCn1c(N)c(N(CCOC)C(=O)COC(=O)CCOc2ccc(C)cc2)c(=O)[nH]c1=O	inconclusive: 16.5 µM [inhibitor, single point]	
